1 molecule from publication PMC11014671, “Small molecules that disrupt RAD54-BLM interaction hamper tumor proliferation in colon cancer chemoresistance models” (The Journal of Clinical Investigation, 2024) can be followed below.

The target in this experiment is T1, pcDNA3.1 N-RAD54 (1-212) Rluc-F(1) (UniProt Q92698).
T1 sequence: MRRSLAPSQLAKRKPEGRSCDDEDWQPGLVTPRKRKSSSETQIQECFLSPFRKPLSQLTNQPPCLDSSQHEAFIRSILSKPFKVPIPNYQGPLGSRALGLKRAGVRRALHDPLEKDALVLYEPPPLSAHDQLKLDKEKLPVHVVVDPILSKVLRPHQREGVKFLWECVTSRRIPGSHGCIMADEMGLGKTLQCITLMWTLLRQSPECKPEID
Nature of the experiment: split reporter; Renilla luciferase protein complementation assay in HEK293T cells transfected with N-RAD54 F1 and BLM F2; 37 °C for 2 hours without or with small molecules (1nM to 100µM); Rluc activity after coelenterazine h.

These are yes or no findings as the source states them, for the method shown. Binding seen in cells or lysates may run through a third protein. Some results given as binding are weak or reduced against the parent protein; the word gives no strength. Where a sequence is shown, tags or fusion partners need not be part of it.

B1: pcDNA3.1 BLM (181-212) Rluc-F(2) (domain or fragment)
chain: STAQKSKKGKRNFFKAQLYTTNTVKTDLPPPS
Consider B1, for which the binding entry was “binds”.
